# Measured data: PubChem BioAssay AID504764 (Drosophila RNAi Screening Center, 2011)
# Screen: 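Genes whose knock-down alters Notch-dependent transcription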 (primary screen)
# System: Drosophila Kc167 cells
# Knock-down reagent: long dsRNA against Drosophila genes
# Timing: about 5 days (4 days dsRNA, then 24 h after transfection)
# Challenge: transfection of constitutively active membrane-tethered Notch lacking the extracellular domain, read 24 h later
# Measured: 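Firefly luciferase from an E(spl)m3 reporter with active Notch, plus control-promoter and uninduced reporter wells for normalisation; unnormalised counts, duplicate wells a and b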
# Scale: induced reporter light, run 1, well a and induced reporter light, run 1, well b: higher = more light from the Notch target reporter with active Notch; control promoter light, run 1, well a and control promoter light, run 1, well b: higher = more light from the viral control promoter (cell number, transfection, viability); uninduced reporter light, run 1, well a: higher = more light from the Notch target reporter without active Notch
# Active means: 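Wells with low control signal or poorly matching duplicates excluded; duplicates averaged; per source plate, z beyond ±2 for induced/control log2 ratio or beyond ±1.8 for induced/uninduced marks a hit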
# Meaning of the calls: active = modifier hit (raised or lowered Notch signal); inactive = not a hit
# In all, the deposit lists about 22,000 reagents; this is an unselected part of those with a known target gene and a result. In the full data, 403 (1.9%) are marked active. 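Unnormalised raw counts per well; ratio z-scores behind the hit calls and whether each hit raises or lowers signal are not deposited.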 A plus sign joins genes that one reagent is predicted to hit. No sequences are given here. Not given: the amount of reagent.
The opening 6 records as a preview:
target gene,DRSC id,"induced reporter light, run 1, well a","induced reporter light, run 1, well b","control promoter light, run 1, well a","control promoter light, run 1, well b","uninduced reporter light, run 1, well a",outcome
Cog2 (GeneID 41870),DRSC16987,2.05e5,2.28e5,2.10e5,2.12e5,19290,inactive
Sfp26Ad (GeneID 8673981),DRSC00904,1.17e5,1.38e5,2.14e5,2.10e5,9440,inactive
CG15394 (GeneID 33446),DRSC00408,1.31e5,1.32e5,1.09e5,63645,8740,inactive
PHDP (GeneID 37788),DRSC04635,1.85e5,1.44e5,1.41e5,1.56e5,11460,inactive
Rcd4 (GeneID 34158),DRSC02597,1.87e5,1.91e5,1.12e5,1.39e5,22855,inactive
CG32102 (GeneID 317854),DRSC22015,,,,,,inactive

The list itself, from the first entry:
target gene,DRSC id,"induced reporter light, run 1, well a","induced reporter light, run 1, well b","control promoter light, run 1, well a","control promoter light, run 1, well b","uninduced reporter light, run 1, well a",outcome
Cog2 (GeneID 41870),DRSC16987,2.05e5,2.28e5,2.10e5,2.12e5,19290,inactive
Sfp26Ad (GeneID 8673981),DRSC00904,1.17e5,1.38e5,2.14e5,2.10e5,9440,inactive
CG15394 (GeneID 33446),DRSC00408,1.31e5,1.32e5,1.09e5,63645,8740,inactive
PHDP (GeneID 37788),DRSC04635,1.85e5,1.44e5,1.41e5,1.56e5,11460,inactive
Rcd4 (GeneID 34158),DRSC02597,1.87e5,1.91e5,1.12e5,1.39e5,22855,inactive
CG32102 (GeneID 317854),DRSC22015,,,,,,inactive
CG42390 (GeneID 42600),DRSC15866,12580,11700,11405,12865,3520,inactive
CG5707 (GeneID 48422),DRSC08573,1.26e5,1.36e5,1.99e5,2.37e5,10485,inactive
CG16713 (GeneID 33591),DRSC00477,1.67e5,1.49e5,1.64e5,1.89e5,10755,inactive
rasp (GeneID 44098),DRSC08191,1.06e5,1.73e5,2.37e5,2.05e5,7628,inactive
CG34435 (GeneID 31471),DRSC18086,1.39e5,1.40e5,3.03e5,2.44e5,10540,inactive
Hsp83 (GeneID 38389),DRSC08664,63645,78165,1.31e5,1.16e5,5805,inactive
Vamp7 (GeneID 36015),DRSC06599,1.59e5,1.45e5,2.35e5,1.90e5,15100,inactive
par-6 (GeneID 32752),DRSC20359,1.05e5,93440,97675,40535,8330,inactive
CAH6 (GeneID 43701),DRSC15505,1.22e5,1.18e5,1.82e5,1.90e5,11405,inactive
Asph (GeneID 36778),DRSC06783,1.18e5,1.29e5,2.40e5,2.06e5,8392,inactive
Asph (GeneID 36778),DRSC07171,1.32e5,1.15e5,2.60e5,3.03e5,11642,inactive
CG34148 + P5CDh2,DRSC13519,45150,34110,58980,54195,6720,inactive
egl (GeneID 37757),DRSC04682,1.65e5,1.32e5,1.63e5,1.44e5,9730,inactive
p47 (GeneID 35674),DRSC06046,70070,51925,53265,56160,3780,inactive
CG6675 (GeneID 35439),DRSC03735,46455,48670,49300,35555,2765,inactive
Drsl6 (GeneID 38416),DRSC08161,1.04e5,1.13e5,2.47e5,1.64e5,4575,inactive
CG33333 (GeneID 2768672),DRSC13233,69125,47475,71270,63915,7600,inactive
CG6465 (GeneID 41274),DRSC16046,1.48e5,1.23e5,1.04e5,95040,10635,inactive
CG13058 (GeneID 39806),DRSC09941,1.14e5,1.49e5,1.97e5,1.93e5,5910,inactive
CG8646 (GeneID 36394),DRSC07230,89130,89695,1.59e5,1.05e5,10600,inactive
CG14120 (GeneID 39463),DRSC10124,1.71e5,1.43e5,2.01e5,1.65e5,9585,inactive
CG15611 (GeneID 36930),DRSC06563,84150,87810,1.62e5,1.96e5,9895,inactive
CG15611 (GeneID 36930),DRSC06564,1.09e5,1.12e5,1.22e5,1.15e5,8188,inactive
Usp5 (GeneID 38375),DRSC08244,49850,60600,67425,57620,3200,inactive
Acp36DE (GeneID 35096),DRSC01860,1.64e5,1.83e5,1.55e5,1.44e5,13000,inactive
Acp62F (GeneID 38340),DRSC08136,1.42e5,1.87e5,2.78e5,1.97e5,9110,inactive
5-HT7 (GeneID 43669),DRSC12635,1.77e5,2.16e5,2.44e5,2.38e5,11720,inactive
CG13311 (GeneID 39008),DRSC09982,2.36e5,1.74e5,3.09e5,2.76e5,11115,inactive
pod1 (GeneID 31620),DRSC18362,1.46e5,1.80e5,1.20e5,1.12e5,13575,inactive
CG9877 (GeneID 37666),DRSC04587,2.06e5,1.65e5,1.62e5,1.73e5,13945,inactive
SLIRP1 + anox,DRSC20542,1.01e5,1.17e5,90360,69100,9110,inactive
CG9896 (GeneID 37652),DRSC03962,69635,83880,72990,72165,6570,inactive
CG9896 (GeneID 37652),DRSC04594,1.42e5,1.42e5,1.55e5,1.57e5,10390,inactive
ppk13 (GeneID 3346226),DRSC02382,50920,61975,54685,43340,2750,inactive
CG5860 (GeneID 42095),DRSC15896,2.35e5,2.05e5,2.36e5,1.88e5,22560,inactive
gcl (GeneID 35864),DRSC07623,1.73e5,1.97e5,1.40e5,1.52e5,16155,inactive
CR14033 (GeneID 10178827),DRSC02358,1.91e5,1.58e5,1.95e5,1.99e5,19420,inactive
NFAT (GeneID 32321),DRSC18991,86395,87170,41920,43160,8435,inactive
NFAT (GeneID 32321),DRSC19393,42305,36515,36880,34965,3180,active
r-l (GeneID 42493),DRSC17042,1.57e5,1.84e5,1.97e5,2.49e5,15145,inactive
r-l (GeneID 42493),DRSC22784,,,,,,inactive
FER (GeneID 41118),DRSC12735,1.82e5,1.73e5,1.87e5,2.09e5,13220,inactive
FER (GeneID 41118),DRSC16673,61575,70920,74680,53250,3795,inactive
CG14115 (GeneID 39487),DRSC10118,1.25e5,1.17e5,1.73e5,1.37e5,6815,inactive
